Source: article PMC6316800

Chains of the proteins cited; added tags and fusions are not shown.
UniProt P03496: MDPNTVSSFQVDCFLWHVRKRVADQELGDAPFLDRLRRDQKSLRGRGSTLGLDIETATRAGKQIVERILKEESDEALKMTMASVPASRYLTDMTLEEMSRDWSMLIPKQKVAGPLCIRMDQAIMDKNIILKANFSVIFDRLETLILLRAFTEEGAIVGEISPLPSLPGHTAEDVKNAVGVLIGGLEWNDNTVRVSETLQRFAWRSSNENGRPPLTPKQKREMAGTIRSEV

B1: Transducin beta-like protein 3 (protein, UniProt Q12788 1-808)
chain: MAETAAGVGRFKTNYAVERKIEPFYKGGKAQLDQTGQHLFCVCGTRVNILEVASGAVLRSLEQEDQEDITAFDLSPDNEVLVTASRALLLAQWAWQEGSVTRLWKAIHTAPVATMAFDPTSTLLATGGCDGAVRVWDIVRHYGTHHFRGSPGVVHLVAFHPDPTRLLLFSSATDAAIRVWSLQDRSCLAVLTAHYSAVTSLAFSADGHTMLSSGRDKICIIWDLQSCQATRTVPVFESVEAAVLLPEEPVSQLGVKSPGLYFLTAGDQGTLRVWEAASGQCVYTQAQPPGPGQELTHCTLAHTAGVVLTATADHNLLLYEARSLRLQKQFAGYSEEVLDVRFLGPEDSHVVVASNSPCLKVFELQTSACQILHGHTDIVLALDVFRKGWLFASCAKDQSVRIWRMNKAGQVMCVAQGSGHTHSVGTVCCSRLKESFLVTGSQDCTVKLWPLPKALLSKNTAPDNGPILLQAQTTQRCHDKDINSVAIAPNDKLLATGSQDRTAKLWALPQCQLLGVFSGHRRGLWCVQFSPMDQVLATASADGTIKLWALQDFSCLKTFEGHDASVLKVAFVSRGTQLLSSGSDGLVKLWTIKNNECVRTLDAHEDKVWGLHCSRLDDHALTGASDSRVILWKDVTEAEQAEEQARQEEQVVRQQELDNLLHEKRYLRALGLAISLDRPHTVLTVIQAIRRDPEACEKLEATMLRLRRDQKEALLRFCVTWNTNSRHCHEAQAVLGVLLRREAPEELLAYEGVRAALEALLPYTERHFQRLSRTLQAAAFLDFLWHNMKLPVPAAAPTPWETHKGALP
B2: Treacle protein (protein, UniProt Q13428 1-1488)
chain: MAEARKRRELLPLIYHHLLRAGYVRAAREVKEQSGQKCFLAQPVTLLDIYTHWQQTSELGRKRKAEEDAALQAKKTRVSDPISTSESSEEEEEAEAETAKATPRLASTNSSVLGADLPSSMKEKAKAETEKAGKTGNSMPHPATGKTVANLLSGKSPRKSAEPSANTTLVSETEEEGSVPAFGAAAKPGMVSAGQADSSSEDTSSSSDETDVEGKPSVKPAQVKASSVSTKESPARKAAPAPGKVGDVTPQVKGGALPPAKRAKKPEEESESSEEGSESEEEAPAGTRSQVKASEKILQVRAASAPAKGTPGKGATPAPPGKAGAVASQTKAGKPEEDSESSSEESSDSEEETPAAKALLQAKASGKTSQVGAASAPAKESPRKGAAPAPPGKTGPAVAKAQAGKREEDSQSSSEESDSEEEAPAQAKPSGKAPQVRAASAPAKESPRKGAAPAPPRKTGPAAAQVQVGKQEEDSRSSSEESDSDREALAAMNAAQVKPLGKSPQVKPASTMGMGPLGKGAGPVPPGKVGPATPSAQVGKWEEDSESSSEESSDSSDGEVPTAVAPAQEKSLGNILQAKPTSSPAKGPPQKAGPVAVQVKAEKPMDNSESSEESSDSADSEEAPAAMTAAQAKPALKIPQTKACPKKTNTTASAKVAPVRVGTQAPRKAGTATSPAGSSPAVAGGTQRPAEDSSSSEESDSEEEKTGLAVTVGQAKSVGKGLQVKAASVPVKGSLGQGTAPVLPGKTGPTVTQVKAEKQEDSESSEEESDSEEAAASPAQVKTSVKKTQAKANPAAARAPSAKGTISAPGKVVTAAAQAKQRSPSKVKPPVRNPQNSTVLARGPASVPSVGKAVATAAQAQTGPEEDSGSSEEESDSEEEAETLAQVKPSGKTHQIRAALAPAKESPRKGAAPTPPGKTGPSAAQAGKQDDSGSSSEESDSDGEAPAAVTSAQVIKPPLIFVDPNRSPAGPAATPAQAQAASTPRKARASESTARSSSSESEDEDVIPATQCLTPGIRTNVVTMPTAHPRIAPKASMAGASSSKESSRISDGKKQEGPATQVSKKNPASLPLTQAALKVLAQKASEAQPPVARTQPSSGVDSAVGTLPATSPQSTSVQAKGTNKLRKPKLPEVQQATKAPESSDDSEDSSDSSSGSEEDGEGPQGAKSAHTLGPTPSRTETLVEETAAESSEDDVVAPSQSLLSGYMTPGLTPANSQASKATPKLDSSPSVSSTLAAKDDPDGKQEAKPQQAAGMLSPKTGGKEAASGTTPQKSRKPKKGAGNPQASTLALQSNITQCLLGQPWPLNEAQVQASVVKVLTELLEQERKKVVDTTKESSRKGWESRKRKLSGDQPAARTPRSKKKKKLGAGEGGEASVSPEKTSTTSKGKAKRDKASGDVKEKKGKGSLGSQGAKDEPEEELQKGMGTVEGGDQSNPKSKKEKKKSDKRKKDKEKKEKKKKAKKASTKDSESPSQKKKKKKKKTAEQTV
B3: Testis-expressed sequence 10 protein (protein, UniProt Q9NXF1 1-929)
chain: MTKKRKRQHDFQKVKLKVGKKKPKLQNATPTNFKTKTIHLPEQLKEDGTLPTNNRKLNIKDLLSQMHHYNAGVKQSALLGLKDLLSQYPFIIDAHLSNILSEVTAVFTDKDANVRLAAVQLLQFLAPKIRAEQISPFFPLVSAHLSSAMTHITEGIQEDSLKVLDILLEQYPALITGRSSILLKNFVELISHQQLSKGLINRDRSQSWILSVNPNRRLTSQQWRLKVLVRLSKFLQALADGSSRLRESEGLQEQKENPHATSNSIFINWKEHANDQQHIQVYENGGSQPNVSSQFRLRYLVGGLSGVDEGLSSTENLKGFIEIIIPLLIECWVEAVPPQLATPVGNGIEREPLQVMQQVLNIISLLWKLSKQQDETHKLESWLRKNYLIDFKHHFMSRFPYVLKEITKHKRKEPNKSIKHCTVLSNNIDHLLLNLTLSDIMVSLANASTLQKDCSWIEMIRKFVTETLEDGSRLNSKQLNRLLGVSWRLMQIQPNREDTETLIKAVYTLYQQRGLILPVRTLLLKFFSKIYQTEELRSCRFRYRSKVLSRWLAGLPLQLAHLGSRNPELSTQLIDIIHTAAARANKELLKSLQATALRIYDPQEGAVVVLPADSQQRLVQLVYFLPSLPADLLSRLSRCCIMGRLSSSLAAMLIGILHMRSSFSGWKYSAKDWLMSDVDYFSFLFSTLTGFSKEELTWLQSLRGVPHVIQTQLSPVLLYLTDLDQFLHHWDVTEAVFHSLLVIPARSQNFDILQSAISKHLVGLTVIPDSTAGCVFGVICKLLDHTCVVSETLLPFLASCCYSLLYFLLTIEKGEAEHLRKRDKLWGVCVSILALLPRVLRLMLQSLRVNRVGPEELPVVGQLLRLLLQHAPLRTHMLTNAILVQQIIKNITTLKSGSVQEQWLTDLHYCFNVYITGHPQGPSALATVY
B4: Lamina-associated polypeptide 2, isoform alpha (protein, UniProt P42166 1-694)
chain: MPEFLEDPSVLTKDKLKSELVANNVTLPAGEQRKDVYVQLYLQHLTARNRPPLPAGTNSKGPPDFSSDEEREPTPVLGSGAAAAGRSRAAVGRKATKKTDKPRQEDKDDLDVTELTNEDLLDQLVKYGVNPGPIVGTTRKLYEKKLLKLREQGTESRSSTPLPTISSSAENTRQNGSNDSDRYSDNEEGKKKEHKKVKSTRDIVPFSELGTTPSGGGFFQGISFPEISTRPPLGSTELQAAKKVHTSKGDLPREPLVATNLPGRGQLQKLASERNLFISCKSSHDRCLEKSSSSSSQPEHSAMLVSTAASPSLIKETTTGYYKDIVENICGREKSGIQPLCPERSHISDQSPLSSKRKALEESESSQLISPPLAQAIRDYVNSLLVQGGVGSLPGTSNSMPPLDVENIQKRIDQSKFQETEFLSPPRKVPRLSEKSVEERDSGSFVAFQNIPGSELMSSFAKTVVSHSLTTLGLEVAKQSQHDKIDASELSFPFHESILKVIEEEWQQVDRQLPSLACKYPVSSREATQILSVPKVDDEILGFISEATPLGGIQAASTESCNQQLDLALCRAYEAAASALQIATHTAFVAKAMQADISQAAQILSSDPSRTHQALGILSKTYDAASYICEAAFDEVKMAAHTMGNATVGRRYLWLKDCKINLASKNKLASTPFKGGTLFGGEVCKVIKKRGNKH
B5: Transformer-2 protein homolog alpha (protein, UniProt Q13595 1-282)
chain: MSDVEENNFEGRESRSQSKSPTGTPARVKSESRSGSRSPSRVSKHSESHSRSRSKSRSRSRRHSHRRYTRSRSHSHSHRRRSRSRSYTPEYRRRRSRSHSPMSNRRRHTGSRANPDPNTCLGVFGLSLYTTERDLREVFSRYGPLSGVNVVYDQRTGRSRGFAFVYFERIDDSKEAMERANGMELDGRRIRVDYSITKRAHTPTPGIYMGRPTHSGGGGGGGGGGGGGGGGRRRDSYYDRGYDRGYDRYEDYDYRYRRRSPSPYYSRYRSRSRSRSYSPRRY
B6: ATP-dependent RNA helicase DDX24 (protein, UniProt Q9GZR7 1-859)
chain: MKLKDTKSRPKQSSCGKFQTKGIKVVGKWKEVKIDPNMFADGQMDDLVCFEELTDYQLVSPAKNPSSLFSKEAPKRKAQAVSEEEEEEEGKSSSPKKKIKLKKSKNVATEGTSTQKEFEVKDPELEAQGDDMVCDDPEAGEMTSENLVQTAPKKKKNKGKKGLEPSQSTAAKVPKKAKTWIPEVHDQKADVSAWKDLFVPRPVLRALSFLGFSAPTPIQALTLAPAIRDKLDILGAAETGSGKTLAFAIPMIHAVLQWQKRNAAPPPSNTEAPPGETRTEAGAETRSPGKAEAESDALPDDTVIESEALPSDIAAEARAKTGGTVSDQALLFGDDDAGEGPSSLIREKPVPKQNENEEENLDKEQTGNLKQELDDKSATCKAYPKRPLLGLVLTPTRELAVQVKQHIDAVARFTGIKTAILVGGMSTQKQQRMLNRRPEIVVATPGRLWELIKEKHYHLRNLRQLRCLVVDEADRMVEKGHFAELSQLLEMLNDSQYNPKRQTLVFSATLTLVHQAPARILHKKHTKKMDKTAKLDLLMQKIGMRGKPKVIDLTRNEATVETLTETKIHCETDEKDFYLYYFLMQYPGRSLVFANSISCIKRLSGLLKVLDIMPLTLHACMHQKQRLRNLEQFARLEDCVLLATDVAARGLDIPKVQHVIHYQVPRTSEIYVHRSGRTARATNEGLSLMLIGPEDVINFKKIYKTLKKDEDIPLFPVQTKYMDVVKERIRLARQIEKSEYRNFQACLHNSWIEQAAAALEIELEEDMYKGGKADQQEERRRQKQMKVLKKELRHLLSQPLFTESQKTKYPTQSGKPPLLVSAPSKSESALSCLSKQKKKKTKKPKEPQPEQPQPSTSAN
B7: U3 small nucleolar RNA-associated protein 14 homolog A (protein, UniProt Q9BVJ6 1-771)
chain: MTANRLAESLLALSQQEELADLPKDYLLSESEDEGDNDGERKHQKLLEAISSLDGKNRRKLAERSEASLKVSEFNVSSEGSGEKLVLADLLEPVKTSSSLATVKKQLSRVKSKKTVELPLNKEEIERIHREVAFNKTAQVLSKWDPVVLKNRQAEQLVFPLEKEEPAIAPIEHVLSGWKARTPLEQEIFNLLHKNKQPVTDPLLTPVEKASLRAMSLEEAKMRRAELQRARALQSYYEAKARREKKIKSKKYHKVVKKGKAKKALKEFEQLRKVNPAAALEELEKIEKARMMERMSLKHQNSGKWAKSKAIMAKYDLEARQAMQEQLSKNKELTQKLQVASESEEEEGGTEDVEELLVPDVVNEVQMNADGPNPWMLRSCTSDTKEAATQEDPEQLPELEAHGVSESEGEERPVAEEEILLREFEERRSLRKRSELSQDAEPAGSQETKDSGSQEVLSELRVLSQKLKENHQSRKQKASSEGTIPQVQREEPAPEEEEPLLLQRPERVQTLEELEELGKEECFQNKELPRPVLEGQQSERTPNNRPDAPKEKKKKEQMIDLQNLLTTQSPSVKSLAVPTIEELEDEEERNHRQMIKEAFAGDDVIRDFLKEKREAVEASKPKDVDLTLPGWGEWGGVGLKPSAKKRRRFLIKAPEGPPRKDKNLPNVIINEKRNIHAAAHQVRVLPYPFTHHWQFERTIQTPIGSTWNTQRAFQKLTTPKVVTKPGHIINPIKAEDVGYRSSSRSDLSVIQRNPKRITTRHKKQLKKCSVD

Molecular target: Influenza A virus non-structural protein 1 (NS1), strain A/Puerto Rico/8/1934(H1N1) (Influenza A virus A/Puerto Rico/8/1934(H1N1)) (UniProt P03496)
Test: affinity purification with mass spectrometry

Q: Which binding does the source give for B1 here?
A: binds

Q: For B2, which binding is on record?
A: binds

Q: For B3, which binding is on record?
A: binds

Q: Which binding does the source give for B4 here?
A: binds

Q: B5 was tested. Which binding did it give?
A: binds

Q: How did the binding turn out when B6 was run?
A: binds

Q: B7 was tested. Which binding did it give?
A: binds

These are yes or no findings as the source states them, for the method shown. Binding seen in cells or lysates may run through a third protein. A yes stands for co-enrichment or nearness to the bait. Other partners may have been found.
